Experimental data as given in patent US8008339B2, “Non-fluorescent chlorophyll catabolites” (Leopold-Franzens-Universitat Innsbruck, priority 2005, dated 2011).
At least one compound was matched to its structure with a doubt left.

Assay: Antioxidant action: AIBN-induced autooxidation of linoleic acid (after Stocker et al.)
Conditions: 50 μM bilirubin, FIG. 1

C=CC1=C(C)/C(=C/c2[nH]c(Cc3[nH]c(/C=C4\NC(=O)C(C)=C4C=C)c(C)c3CCC(=O)O)c(CCC(=O)O)c2C)NC1=O [bilirubin]
oxidation of linoleic acid without the addition versus with it: approximately four times faster
